Laboratory results reported in PubChem BioAssay AID1347423 (Functional Genomics Laboratory (NCATS/FGL), 2020).
The whole screen tested about 52,000 sequences, of which about 210 (0.4%) were called active.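 Rule for the calls: active = gene whose silencing raises cell survival under the drug, median off-target-corrected z-score across its silencing RNAs 2 or more; inactive = the rest.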 The list shows a part of the results.

assay: Resistance to Poly (ADP-Ribose) Polymerase inhibitor: Gene Identification via Genome-wide siRNA Screen; settings: mouse BRCA2 R2336H ES cells, olaparib, CellTiter-Glo viability; hits give high values
Summary of the method: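 Genome-wide siRNA screen (3 siRNAs/gene, 20 nM) in mouse ES cells carrying hypomorphic BRCA2 R2336H; olaparib 500 nM added 48 h post-transfection, CellTiter-Glo viability 72 h later. Normalized to plate-median negative control; MAD z-scores, gene median, seed-adjusted.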

Sequence | z-score
GGAAGAACUGAUUGAAGAGTT against Sptlc1 | inactive: 0.939
CCCGACGUAGGAUCUUUGATT against Ncdn | inactive: 0.548
GCUGAUGGACAAAUUCCACTT against Rapgef1 | inactive: 0.411
GGCUUGACCUGCGUCUUCATT against 1700001P01Rik | inactive: 0.0714
GGAUCAGAGAAGGAAAAAATT against Hspa12a | inactive: -0.819
GGUGACAAGAGGUUUUGCUTT against Idh3a | inactive: 0.495
GGAUCAUCAAAGACGACAUTT against Prss34 | inactive: -0.807
GGUUGAGUUCCGAUCCCAUTT against Gip | inactive: 0.94
GGACCAGGUGAUGAAGAGGTT against Fzd4 | inactive: 0.842
GGGUCGGUCUAUUAGGGAUTT against Rhbdf1 | inactive: -1.14
GGGAACAACACAUAAUGGATT against BC002059 | inactive: -0.0122
GCUUAAAGAUCGAUCCCGCTT against Slc38a4 | inactive: 0.666
GACUUUCAAUACUGUGAUUTT against H2-M10.2 | inactive: 0.331
CGUGUACAAGACCAACAACTT against Scg2 | inactive: 1.74
GGAAAGACAUGAUACUGUCTT against Nr1i3 | inactive: 1.4
GCUCCAACUACAUUGACUATT against Olfr1410 | inactive: -1.89
GCCGCCAUGACAGUAAAAGTT against Sfrs4 | inactive: -0.52
GGAUGUCUAGUUAUACAUUTT against Mbd3l1 | inactive: -0.00607
GGAAGUGAGUCAGAGCUCATT against Cdc42ep3 | inactive: -0.165
CCGCCGAUCUACUAGUGGUTT against Slc6a2 | inactive: -0.394
GGUUGUGUGUCUGUUUGGUTT against Olfr1012 | inactive: -0.473
CGUAUGACUAAGGAUGAAUTT against 2810002D13Rik | inactive: -0.123

Sequence | z-score
GCACGCACACUUAUGAUACTT against Meox2 | inactive: -0.668
CCGAAGCUCUGUUUUGAACTT against Hdac9 | inactive: -0.59
GGCCAUCAAGAAAGUCAAGTT against 2310043K02Rik | inactive: 0.306
GGAAGGUUUCGCUUUGAAUTT against 9930022N03Rik | inactive: 0.356
CCUGAGAGUAUUCACCAGCTT against Fbp2 | inactive: 2.97
CCGAUUCUUAGAAAUGUUCTT against Olfr692 | inactive: 0.814
GCCGGAUUCAUUGAAAGCATT against Eif2ak3 | inactive: -0.0757
GGCUCAUUGGACAUAUAUGTT against Casp8ap2 | inactive: -2.18
GGUAUCAAAGCUGAAAUUGTT against Spnb2 | inactive: 0.158
GCUGGAAGGAGGAACCAAGTT against 1810037I17Rik | inactive: -2.52
GGUGCUUUGACCUAUAUCUTT against LOC382137 | inactive: 0.684
GGAAGUAACAUGCUUCUAGTT against A530001H01Rik | inactive: 1.18
GGAGUGCAAUUCCUUUCUATT against Ptger3 | inactive: 1.3
GGCCUGAUUACCUUGGAAATT against Papss1 | inactive: -0.224
GGCUGCUGAAGCAAAUAAGTT against Ankrd17 | inactive: -2.59
CCUGCUAAACCUGGACCAUTT against Hic1 | inactive: 2.39
GGAACAGGAAGUUAAAUACTT against Neu4 | inactive: 0.28
GGCUGGAUUAUUUUUUCUUTT against Usp4 | inactive: -0.877
GGACUUAAACUUCAUGACATT against Csf2ra | inactive: 1.71
GCCUUUCUCGUUCCUAUAGTT against 5033414D02Rik | inactive: -1.33
GCGAGUUUAAUGUUUAUGCTT against Pdgfra | inactive: -0.506
GGAACUUAGAAGUUUACAATT against Caml | inactive: 1.53

Sequence | z-score
GGACAGUGCCUGAUAACCATT against Chrm4 | inactive: -0.629
GGAUCCUUAAGCUUGGAGCTT against Ascl2 | inactive: 0.0295
GGUCCUUAGAAUAAUUAAGTT against Mod1 | inactive: -0.105
GGAGAGGGUAGCUUUAAAUTT against Olfr801 | inactive: 0.351
GUAUUUCCACUUCAUUGUGTT against Tmem15 | inactive: -0.815
GCCAAUUGGUUCCCUGUAATT against 1700034E13Rik | inactive: 0.354
GGCCAUGGCUACUAUUGUCTT against Tgoln1 | inactive: -0.294
GGGUGUGCAUUCUUCUAUUTT against Olfr1242 | inactive: 2.94
GGUUUUCAAAUGUCUAUCATT against 1110049F12Rik | inactive: 0.315
GGACUCAUCAGAGGAUAAATT against 4930565N07Rik | inactive: -1.25
CGACAUCAAGGAUCGAAUATT against Pkn2 | inactive: -0.411
GGAUUUGUACACACUUCAATT against 1810011O10Rik | inactive: -0.989
GGUAGUAGAAGCUGUUAACTT against Slc36a2 | inactive: 0.187
UAAAAUAUGCGAGCUCGCGTT against ADAM26b | inactive: 1.91
GGACAUAAGAAAAUGACCATT against Mbtd1 | inactive: -1.08
GGAAAUUGCCUUCUACGGGTT against Abcd1 | inactive: -0.213
GUGUAUCACAAGACUAUGCTT against Leap2 | inactive: -0.581
GGCUGAAAAGAAAAACAGATT against Rgs5 | inactive: -0.484
GGAAAUCCAUUGUUUAAAGTT against Wt1 | inactive: 0.289
CCUUCAUUCUCAUUGGCAUTT against Olfr591 | inactive: -0.0543
GCCUGGCCUUUCCAAUAUCTT against AU018829 | inactive: -1.16
GCCUAAGGUCCAAACCAAGTT against Rpl29 | inactive: -1.66

A few values from the entries so far.
For z-score, GUAUUUCCACUUCAUUGUGTT against Tmem15 reads inactive: -0.815
For z-score, GGAGAGGGUAGCUUUAAAUTT against Olfr801 reads inactive: 0.351
For z-score, GGAUUUGUACACACUUCAATT against 1810011O10Rik reads inactive: -0.989
